# PubChem BioAssay AID588497 (NMMLSC, 2011)
# The campaign covered roughly 360,000 compounds. About 780 (0.22%) were called active. Inconclusive results, whose numbers are uncertain, are shown with a selection of clear calls. Rule as the data show it: active = inhibition above about 35% (passing the limit was not always enough); inconclusive = no clear call, values can overlap the other calls.
# System: Botulinum neurotoxin type F light chain protease (Clostridium botulinum)
# Experiment: BoNT/F light chain protease inhibitors, primary screen, biochemical, flow cytometry, MLPCN library (AID 588497); also: plate controls were buffer without enzyme for full effect and enzyme alone for no effect
# Details: Multiplex microsphere protease cleavage assay, at 10 µM, stronger effect = higher value
row,SMILES,inhibition
1,CCOC(=O)/C(Sc1nc(-c2ccccc2)cc(-c2ccccc2)c1C#N)=C(\C)O,inconclusive: 4.3%
2,COc1ccc(OC)c(NC(=O)CSc2nc3nc(C)cc(C)n3n2)c1,inactive: -3.3%
3,Cc1nc(CSc2nc3[nH]ncc3c(=O)n2-c2ccccc2)cs1,inconclusive: -11.3%
4,Cc1n[nH]c(C)c1S(=O)(=O)N1CCCC(C(=O)N2CCN(c3ccc(Cl)cc3)CC2)C1 (stereo unspecified),inconclusive: 5.8%
5,COc1ccc(-n2c(COc3cccc4cccnc34)nnc2SCC(=O)O)cc1,inactive: -4.1%
6,CCc1ccc(Nc2nc(C)cc(C)n2)cc1,inconclusive: -31.1%
7,O=C(CN1C(=O)c2ccc([N+](=O)[O-])cc2C1=O)NCCC1=CCCCC1,inconclusive: -268%
8,CC(=O)NCC(=O)NC1CC(C)(C)Cc2c1cnn2-c1ccccc1 (stereo unspecified),inconclusive: 12.1%
9,COc1cc(NC(=O)c2ccccc2F)ccc1NC(=O)c1cc2ccccc2o1,inconclusive: 30.6%
10,O=C(COC(=O)C1CCN(c2ccc(C(F)(F)F)cn2)CC1)NCc1ccccc1,inconclusive: -20.9%
11,CC(C)(C)CC(=O)Nc1nnc(CCc2ccccc2)s1,inconclusive: 13.2%
12,Cc1cc(C)nc(N2C(=O)CC(Cc3ccccc3)C2=O)n1 (stereo unspecified),inconclusive: 45.5%
13,CC1(C)CC(=O)C=C(Nc2ccc(OCC(F)(F)C(F)F)cc2)C1,inconclusive: 34.1%
14,CC(C)Cn1nc(C(=O)Nc2nnc(C3CC3)s2)c2ccccc2c1=O,inactive: -3.4%
15,COc1ccc(-c2nn(CCC#N)cc2C(=O)NCc2ccccc2)cc1[N+](=O)[O-],inconclusive: 19.5%
16,CNC(=O)c1csc(Cc2c(Cl)sc3ccc(Cl)cc23)n1,inconclusive: 113%
17,COC(=O)[C@H](Cc1ccccc1)NC(=O)C1(OC(C)=O)CC(OC(C)=O)C(OC(C)=O)C(OC(C)=O)C1 (stereo partly specified),inactive: -3.3%
18,CC(C)=C1C2CCC1C1C(=O)N(NC(=O)COc3ccc(C(C)(C)C)cc3)C(=O)C21 (stereo unspecified),inconclusive: -6.9%
19,COc1ccc(C(CC(=O)N2CCCCC2)C(C)C)cc1 (stereo unspecified),inconclusive: -3.3%

# Part of the list above, with tabs:
row	SMILES	inhibition
15	COc1ccc(-c2nn(CCC#N)cc2C(=O)NCc2ccccc2)cc1[N+](=O)[O-]	inconclusive: 19.5%
16	CNC(=O)c1csc(Cc2c(Cl)sc3ccc(Cl)cc23)n1	inconclusive: 113%
17	COC(=O)[C@H](Cc1ccccc1)NC(=O)C1(OC(C)=O)CC(OC(C)=O)C(OC(C)=O)C(OC(C)=O)C1 (stereo partly specified)	inactive: -3.3%

# (next part)

row,SMILES,inhibition
1,Cc1cc(C)nc(OC(C(=O)O)C(OCCc2ccccc2)(c2ccc(F)cc2)c2ccc(F)cc2)n1 (stereo unspecified),inconclusive: 2.7%
2,CC(NCc1cc(Br)ccc1OCC(N)=O)C12CC3CC(CC(C3)C1)C2 (stereo unspecified),inconclusive: -301%
3,COc1ccc(-c2cc(C(F)(F)F)c(C#N)c(SCC(=O)Nc3nc(C)co3)n2)cc1,inactive: 7.4%
4,OC(CCN1CCOCC1)c1ccccc1 (stereo unspecified),inconclusive: -15%
5,CC(=O)Nc1ccc(N2CCN(Cc3ccccc3)CC2)cc1,inactive: 6.8%
6,CCOC(=O)c1c(NC(=S)N2CCCCC2)sc2c1CCN(C(=O)OCC)C2,inconclusive: -77.7%
7,COc1ccc(NS(=O)(=O)c2cc(NC(=O)[C@@H](NC(=O)c3ccccc3)C(C)C)ccc2C)cc1,inactive: 2%
8,Cn1c(SCC(=O)NNC(=O)Nc2ccccc2)nnc1-c1ccccc1,inconclusive: 21.1%
9,Cn1ncc([N+](=O)[O-])c1C(=O)Nc1ccccc1,inconclusive: 21.2%
10,COc1ccc(-c2nc(-c3cccnc3)no2)cc1,inconclusive: 0.2%
11,O=S(=O)(Nc1ccc(OC(F)F)cc1)c1ccc(-c2ccon2)s1,inconclusive: -24.5%
12,Cc1ccc(S(=O)(=O)N(C)C[C@@H]2OCc3cnnn3CCCC(=O)N([C@@H](C)CO)C[C@H]2C)cc1,inactive: -3%
13,Cc1c(C=O)c2cc(OCc3ccccc3)ccc2n1C,inconclusive: -9.6%
14,CCCN(CC(=O)Nc1ccccc1OC)C(=O)CC1CCCC1,inactive: -0.7%
15,Cc1cccnc1Oc1ncccc1N,inconclusive: -17.4%
16,O=C(N1CCCC1)C12CC3CC(CC(Cl)(C3)C1)C2,inconclusive: -3.3%
17,CC1CCN(CCCCOc2ccccc2Br)CC1,active: 43.3%
18,Cc1nn(-c2ccccc2)c(C)c1C(=O)Nc1nnc(-c2ccco2)o1,inactive: -0.4%
19,Oc1ccc2ccccc2c1C=Nc1ccccc1Br,inconclusive: 3.6%

row,SMILES,inhibition
1,N/C(Cc1ccc(Cl)cc1)=N\OC(=O)c1ccccc1,active: 41.6%
2,CC(C)CC1C(=O)N(Cc2cn(CC3CCCCC3)nn2)CCS(=O)(=O)N1Cc1ccc(-c2ccncc2)cc1 (stereo unspecified),inactive: -4.1%
3,Cc1ccccc1NC(=O)c1cc(-c2ccccc2)n(CCCN2CCOCC2)c1C,inconclusive: -21.2%
4,N#CC1=C(N)OC2=C(C(=O)CCC2)C1c1cc2c(cc1Cl)OCO2 (stereo unspecified),inconclusive: -13.1%
5,COc1ccc2c(CC(=O)N[C@@H](Cc3ccccc3)C(=O)O)cc(=O)oc2c1C,inactive: 23.4%
6,Cc1ccc(-c2cnc3c(c2)C(=O)N([C@H](C)CO)C[C@@H](C)[C@@H](CN(C)C(=O)Cc2ccccc2)O3)cc1,inactive: 1.9%
7,Cn1c(COc2ccccc2Br)nc2ccccc21,inconclusive: -41.7%
8,NC(=O)c1ccccc1NC(=O)CC12CC3CC(CC(C3)C1)C2,inconclusive: -22.1%
9,COc1ccccc1NC(=O)C1=C(C)NC(SCC(=O)Nc2ccc(C(=O)O)cc2)=C(C#N)C1c1cccs1 (stereo unspecified),inactive: -1.4%
10,NS(=O)(=O)c1ccc(CCNC(=O)CSc2nc3ccsc3c(=O)n2Cc2ccccn2)cc1,inactive: 5.4%
11,CC(C)c1nnc(NC(=O)CCC(=O)NCCc2ccccc2)s1,inconclusive: 12.9%
12,O=C1N=C(N2CCOCC2)SC1=C1CCCCC1,inactive: 4.1%
13,CCOc1ccc(NC(=O)CN(C)C(=O)CSCc2c(C)noc2C)cc1OCC,inactive: -10.8%
14,COc1ccc(C2c3c(noc3C)CC(C)(O)C2C(C)=O)cc1 (stereo unspecified),inconclusive: 19.6%
15,Cc1ccc(NC(=S)NCCN2CCOCC2)cc1C,inactive: -4.6%
16,O=C(O)c1ccc(NS(=O)(=O)c2ccc(Cl)c(C(=O)Nc3ccccc3)c2)cc1,inconclusive: -8.6%
17,Cn1nc(C(C)(C)C)cc1C(=O)NCc1cc(F)cc2c1OCOC2,inconclusive: 9.4%
18,c1csc(CSc2nnc3sc4ccccc4n23)c1,inconclusive: -6.7%
